Measurements as given in US20250042872A1, “NOVEL SALT OF 1-SULFONYL PYRROLE DERIVATIVE, METHOD FOR PREPARING SAME, AND PHARMACEUTICAL COMPOSITION INCLUDING SAME” (ILDONG PHARMACEUTICAL CO., LTD., priority 2021, published 2025).
Structures can show the parent of a compound that is named as a salt. Some results were stated once for a whole list of compounds, not compound by compound.

Assay: Measurement of hygroscopicity by dynamic vapor sorption (DVS)
Type: physicochemical
Conditions: 25° C., 0 to 95% humidity
Protocol: Using DVS intrinsic manufactured by SMS Co., Ltd, about 20 mg of the sample was tested for water sorption/desorption profiles at 25° C. under a 0%˜95%˜0% relative humidity (RH) cycle using the following parameters. • Temperature: T=25° C. • Equilibrium: dm/dt: 0.01%/min. • Range of RH (%) measurement step: 0%˜95%˜0%; RH(%) measurement step: 5%
Using the dynamic vapor sorption (DVS) test method described above, the hygroscopicity was measured for the hydrochloride salt prepared in Example 1 and the L-tartrate salt prepared in Example 8, and the results thereof were shown in FIGS. 22 and 23.

Row | Compound | change in weight (hygroscopicity through DVS) [%]
1 | CNCc1cn(S(=O)(=O)c2ccc(OC)nc2)c(-c2ccccc2F)c1OC [Example 1, hydrochloride salt of 1-(5-(2-fluorophenyl)-4-methoxy-1-((6-methoxypyridin-3-yl)sulfonyl)-1H-pyrrole-3-yl)-N-methylmethanamine] | ≤ 0.2
2 | CNCc1cn(S(=O)(=O)c2ccc(OC)nc2)c(-c2ccccc2F)c1OC.O=C(O)C(O)C(O)C(=O)O [Example 8, L-tartrate salt of 1-(5-(2-fluorophenyl)-4-methoxy-1-((6-methoxypyridin-3-yl)sulfonyl)-1H-pyrrole-3-yl)-N-methylmethanamine] | ≤ 0.2
